Data as given in article PMC12040169 (PLOS Biology, 2025).
The other results are listed elsewhere or left out.

Each compound was assayed on T1, CTL2-GFP (C. trachomatis L2/434/Bu, GFP-expressing). Conditions: bulk GFP, single well; 28.5 h, 10 µM; inhibitor.
T1 construct: L2/434/Bu, GFP-expressing
Parameters: species or system HeLa; Intracellular C. trachomatis growth in HeLa cells, bulk GFP fluorescence relative to DMSO

Structure (SMILES) | % of control remaining [%]
c1ccc2[nH]c(SCCN3CCOCC3)nc2c1 [CBK262593] | 92.7613
O=C(CSc1ccc2nnc(-c3ccc(F)cc3)n2n1)N1CCCC1 [CBK287519] | 127.798
O=C(O)c1cccnc1SCc1cc2c(cc1Cl)OCO2 [CBK287178] | 101.614
COc1ccc(-c2ccc(OC3CCNCC3)cc2)c(OC)c1 [CBK093816T] | 88.4111
O=C1CN(Cc2nc(-c3cccc(C(F)(F)F)c3)no2)CCN1 [CBK306038] | 105.96
N#Cc1c(NC(=O)CSc2nc(=O)cc(N)n2CCc2ccccc2)sc2c1CCCC2 [CBK293993] | 148.379
Cc1nc(CN2CCN(c3ccc4nnnn4n3)CC2)cs1 [CBK306056] | 118.004
O=C(NCCO)NC(=S)c1ccccc1 [CBK267213] | 167.059
O=C(CSCc1ccc(Br)cc1)Nc1ccc(S(=O)(=O)N2CCOCC2)cc1 [CBK267845] | 113.788
COCCNC(=O)c1cc2n(n1)C(C(F)(F)F)CC(c1ccccc1)N2 (stereo not drawn) [CBK307610] | 111.628
CC(C)(C)NC(=O)C1C2CCC3(CC(=O)c4cc(Cl)ccc4O3)C21 (stereo not drawn) [CBK284963] | 88.948
Cc1ccccc1-c1ccc2n(c1=O)C[C@H]1C[C@@H]2CN(C(=O)CCC(=O)O)C1 [CBK289181] | 117.85
O=c1[nH]c2ncc(-c3ccsc3)nc2n1Cc1ccccc1 [CBK064227] | 176.756
CCC(=O)N(C)C1CCN(c2ncnc3ccccc23)CC1 [CBK304829] | 97.2144
CC(=O)N1CC[C@H]2NC(=O)CNC(=O)C3(CCCC[C@H]2C1)CCN(Cc1ccc(Cl)cc1)CC3 [CBK292119] | 143.295
Cc1ccc(C(=O)CC(C(=O)O)c2c(C)[nH]c3ccccc23)cc1 (stereo not drawn) [CBK269337] | 156.318
CCN1CCC(NC(=O)CSc2nc3ccccc3n2CCOC)CC1 [CBK306100] | 85.3105
COc1ccc(F)c(CN(CC(C)(C)CN)C(=O)Nc2ccccc2C(F)(F)F)c1 [CBK002412C] | 111.932
CCCC(=O)Nc1nnc(-c2ccc(C)cc2C)o1 [CBK287700] | 113.518
Cc1cc(N2CCCC2)ccc1NC(=O)CCn1c(-c2cccs2)n[nH]c1=S [CBK297883] | 129.766
O=C(Nc1cccc2ccccc12)C1CCCN1S(=O)(=O)c1ccc(F)cc1 (stereo not drawn) [CBK138924] | 91.4429
CC(C)C(=O)N1CCC(c2nc3ccccn3c2NC(C)(C)C)CC1 [CBK284745] | 165.725
CC1(C)CC(=O)N(C2CCCCC2)C(=O)C1C#N (stereo not drawn) [CBK009894] | 98.7474
COC(=O)CCc1ccc(S(=O)(=O)N2CCCN(Cc3cccc(Br)c3)CC2)cc1 [CBK062981] | 118.158
CCCCN(C=O)c1c(CC)nc2c(OCCOc3ccc(F)cc3)cccn12 [CBK147631] | 153.723
O=C(Cn1ccnc1)N1CCCCC1c1nc2ccccc2[nH]1 (stereo not drawn) [CBK283936] | 104.816

Looked up above:
CC(C)C(=O)N1CCC(c2nc3ccccn3c2NC(C)(C)C)CC1 [CBK284745] – % of control remaining [%]: 165.725
O=C1CN(Cc2nc(-c3cccc(C(F)(F)F)c3)no2)CCN1 [CBK306038] – % of control remaining [%]: 105.96
CCCCN(C=O)c1c(CC)nc2c(OCCOc3ccc(F)cc3)cccn12 [CBK147631] – % of control remaining [%]: 153.723

The list goes on:

Structure (SMILES) | % of control remaining [%]
COc1ccc(C(=O)N2CCC3(CCN(Cc4cc(=O)[nH]c(=O)[nH]4)C3)C2)cc1OC (stereo not drawn) [CBK132162] | 107.555
Cc1[nH]c2ccccc2c1C(=O)C(=O)Nc1ccc(C#N)cc1 [CBK269896] | 155.092
Cc1cc(Cl)cc(C)c1NS(=O)(=O)c1ccc(N2CCCNCC2)c2ccccc12 [CBK004433C] | 67.4345
COc1cccc(CN(Cc2ncc[nH]2)Cc2ccco2)c1 [CBK282496] | 136.716
O[C@@H]1C[C@@H](c2nc(-c3ccccn3)no2)N(Cc2ccccc2)C1 [CBK288900] | 129.348
CN1CCc2c(sc3nc(SCc4cccc5ccccc45)n(-c4ccccc4)c(=O)c23)C1 [CBK264556] | 82.0182
COc1ccc(OC)c(C2C(C(=O)c3ccc(C)cc3)=C(O)C(=O)N2Cc2cccnc2)c1 (stereo not drawn) [CBK264492] | 94.1954
Cc1cc(NC(=O)c2cc3ccccc3oc2=O)nc2c1c(=O)oc1ccccc12 [CBK287445] | 121.453
Nc1ncnc2c1ncn2[C@@H]1O[C@H](CCl)[C@H](O)C1O (stereo partly drawn) [CBK201252] | 96.9324
Cc1ccc(S(=O)(=O)Nc2ccc(C3(c4ccc(NS(=O)(=O)c5ccc(C)cc5)cc4)c4ccccc4-c4ccccc43)cc2)cc1 [CBK261154] | 97.5088
O=C(/C=C/c1ccco1)Nc1cccc2c(NC(=O)/C=C/c3ccco3)cccc12 [CBK264974] | 110.362
Cc1nn(CC(=O)NC(C)(C)C)c(=O)c2cc3sccc3n12 [CBK284021] | 132.373
Cc1cc(C2CCCCCN2S(=O)(=O)c2ccc3[nH]c(=O)[nH]c(=O)c3c2)no1 (stereo not drawn) [CBK286404] | 122.808
CCN(CC)C(=O)Cn1ncc2c3sc(C)cc3n(CC)c2c1=O [CBK284167] | 99.1383
COCc1cn([C@H]2CO[C@H]3[C@@H]2OC[C@H]3OC(=O)Nc2ccc(C)cc2)nn1 [CBK289489] | 99.4794
CC(=O)Nc1ccccc1NC(=O)COc1ccc(Br)cc1C [CBK265072] | 129.632
CN(C)c1cc(CNC(=O)c2cc3ccccc3oc2=O)ccn1 [CBK297917] | 125.775
CC(C)(CN1C(=O)c2ccccc2C1=O)C(O)C(=O)O (stereo not drawn) [CBK286582] | 145.241
O=C(Nc1ccc(-c2nc3ccccc3s2)c(O)c1)c1ccc(-c2ccccc2)cc1 [CBK263979] | 100
O=C(O)CCNS(=O)(=O)c1cccc(Cl)c1 [CBK267328] | 136.055
CC(=O)N[C@H](C(=O)N1CC[C@H]2NC(=O)[C@@H](Cc3ccccc3)NC(=O)C3(C/C=C/C[C@H]2C1)CCOCC3)[C@@H](C)OC(C)(C)C [CBK292203] | 119.532
c1cnc(N2CCNCC2)c(OC2CCCCC2)n1 [CBK001837C] | 124.459
O=[N+]([O-])c1nn(-c2ccccc2)[n+]([O-])c1Nc1ccc(Br)cc1 [CBK268504] | 87.7066
COC(=O)c1c(NC(=O)c2cnccn2)sc2c1CCC(C)C2 (stereo not drawn) [CBK262654] | 100
O=C(O)CCCC(=O)Nc1cccc([N+](=O)[O-])c1 [CBK261530] | 109.805
CC(=O)NC(c1nccs1)C1CCCN(CC2CCCCC2)C1 (stereo not drawn) [CBK285152] | 138.27

Two compounds picked at random from those above:
Structure (SMILES) | % of control remaining [%]
Cc1ccc(S(=O)(=O)Nc2ccc(C3(c4ccc(NS(=O)(=O)c5ccc(C)cc5)cc4)c4ccccc4-c4ccccc43)cc2)cc1 [CBK261154] | 97.5088
CC(=O)NC(c1nccs1)C1CCCN(CC2CCCCC2)C1 (stereo not drawn) [CBK285152] | 138.27

Next part.

Structure (SMILES) | % of control remaining [%]
Cc1noc(C)c1S(=O)(=O)NCCc1c[nH]c2ccccc12 [CBK067311] | 112.056
Cc1ccc2ncc(C(=O)Nc3ccc(F)cc3F)c(=O)n2c1 [CBK287286] | 101.471
COc1ccc([C@@]23CC[C@@H](NC(=O)c4ccc(Br)c(C)c4)C[C@@H]2N(C)CC3)cc1OC [CBK076656T] | 117.896
Cc1nc(C)c(C(=O)NCCN2CC(C)CC(C)C2)s1 (stereo not drawn) [CBK283071] | 134.644
O=C(CC1CC2CCC1C2)N1CCC(O)(c2ccccn2)CC1 (stereo not drawn) [CBK283833] | 109.451
OCCNc1ncnc2c1cnn2-c1ccccc1 [CBK077741C] | 77.5059
Cc1ccn(CCC(=O)N2CCC[C@@H]3NC(=O)c4ccccc4OCC/C=C/C[C@@H]32)n1 [CBK292082] | 130.168
N#Cc1cccc(Nc2cncc(-c3cccc(C(=O)NCCO)c3)n2)c1 [CBK037810] | 164.385
O=C(CCS(=O)(=O)c1ccccc1)Nc1ccccc1N1CCNCC1 [CBK028285T] | 98.8874
CC1(C)CCCC1NC(=O)NCc1cccc(-c2nnc[nH]2)c1 (stereo not drawn) [CBK305236] | 118.374
Cc1cc(OCC2CCN(C(=O)OC(C)(C)C)CC2)ccc1Br [CBK175091] | 110.981
CN(C)C1Cc2cccc3nc(S(C)(=O)=O)n(c23)C1 (stereo not drawn) [CBK007942] | 111.668
Cc1cc(Br)ccc1C(=O)N1CC(C(N)=O)CCC1C (stereo not drawn) [CBK305954] | 84.6191
Cc1nn(C)cc1CN1CCCC1c1nc(N(C)C)ncc1-c1cccc(Cl)c1 (stereo not drawn) [CBK286501] | 128.856
COc1cccc(N2CCC(=O)N2)c1 [CBK087441] | 112.184
O=C(Nc1ccc(NC(=O)c2cc3ccccc3o2)cc1)c1ccc(-c2cccc([N+](=O)[O-])c2)o1 [CBK268579] | 150.687
Cc1cc(C)n(CC(=O)N2CCOC(c3ccccc3Cl)C2)n1 (stereo not drawn) [CBK304927] | 116.625
Cc1nn(C)cc1-c1cncn1CCCN1CCCCC1 [CBK281493] | 108.581
Oc1cccc(Sc2cc(N3CCCC3)ncn2)c1 [CBK093749] | 127.835
Cc1cc2ccccc2n2c(SCC(=O)NCCc3ccccc3)nnc12 [CBK265682] | 87.9315
Cc1ccc2c(c1)c(NS(C)(=O)=O)nn2Cc1ccc(C#N)cc1 [CBK048643] | 120.263
CCCn1c(SCc2csc(CC(=O)Nc3ccccc3C)n2)n[nH]c1=O [CBK296969] | 121.329
O=C(CSc1nc(O)cc(O)n1)Nc1ccc(I)cc1 [CBK269467] | 117.635
CN(Cc1ccc(-c2ccc(S(C)(=O)=O)cc2)nc1)C1CCNCC1 [CBK163942] | 102.624
CCOC(=O)c1nc(N)oc1C [CBK056636] | 83.9515
Cc1cc(/C=N/NC(=O)c2ccc(CN3CCOCC3)cc2)c(C)n1-c1ccccc1 [CBK263329] | 115.674
